PubChem BioAssay AID1259254 – NCATS | 2017
Shown is a random part of about 59,000 deposited reagents. About 1,550 of them (2.6%) count as active. 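G2 share is only a proxy for re-replication; each gene was hit by three separate siRNAs, and active genes were retested.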 Unmarked entries are inactive. Reagents against one gene are numbered here. Further read-outs or replicates are left out here. The record does not give: the amount of reagent.

Assay: 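Genome-wide screen for genes that prevent DNA re-replication in cancer cells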 (primary screen)
System: human HCT116 colorectal cancer cells
Reagent: single siRNA against human genes
Time to read-out: 3 days
Measurement: 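Nuclei stained with Hoechst and imaged; cell-cycle phase assigned by DNA content; G2 share scaled per plate, non-targeting siRNA 0%, GMNN siRNA 100%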
Reading the numbers: G2 robust z-score: higher = more G2 cells, more excess DNA replication
Rule for the call: 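An siRNA counts as active if its G2 robust z-score lies at least 5 MADs above the screen median; here such calls match roughly 38% of GMNN control or more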

G2 robust z-score, by target gene and reagent
ZNF548 (zinc finger protein 548): #1 -0.108; #2 -0.786; #3 -0.112
LINC01548 (long independently transcribed non-coding RNA 1548): #1 0.367; #2 -0.288; #3 -0.166
PYDC2 (pyrin domain containing 2): #1 -0.41; #2 0.303; #3 1.14
GPAT4 (glycerol-3-phosphate acyltransferase 4): #1 9.45 (active); #2 -0.604; #3 -0.93
TNFSF10 (TNF superfamily member 10): #1 4.7; #2 2.32; #3 -0.54
RAB4B (RAB4B, member RAS oncogene family): #1 3.05; #2 0.263; #3 -0.841
CCNH (cyclin H): #1 -0.815; #2 10.2 (active); #3 1.38
SASH1 (SAM and SH3 domain containing 1): #1 -0.15; #2 0.534; #3 1.39
AVPI1 (arginine vasopressin induced 1): #1 -0.192; #2 -0.135; #3 0.791
CHPF (chondroitin polymerizing factor): #1 2.32; #2 2.4; #3 1.98
FLOT1 (flotillin 1): #1 -0.926; #2 1.86; #3 3
DSTN (destrin, actin depolymerizing factor): #1 -0.299; #2 0.205; #3 -0.00321
STRAP (serine/threonine kinase receptor associated protein): #1 -0.937; #2 0.279; #3 0.474
SEC22C (SEC22 homolog C, vesicle trafficking protein): #1 -0.263; #2 1.35; #3 -0.145
CDC42EP2 (CDC42 effector protein 2): #1 -1.37; #2 -0.557; #3 3.86
MRPL48 (mitochondrial ribosomal protein L48): #1 0.12; #2 1.79; #3 -0.428
RNF215 (ring finger protein 215): #1 -0.354; #2 8.38 (active); #3 -0.666
RPL13AP6 (ribosomal protein L13a pseudogene 6): #1 2.36; #2 1.23; #3 1.16
DOT1L (DOT1 like histone lysine methyltransferase): #1 2.97; #2 -0.243; #3 2.26
CCNQ (cyclin Q): #1 -0.0847; #2 3.14; #3 -1.05
NIN (ninein): #1 1.44; #2 1.39; #3 -1.16
FAM114A1 (family with sequence similarity 114 member A1): #1 -0.287; #2 0.669; #3 -0.287
ZCCHC8 (zinc finger CCHC-type containing 8): #1 0.65; #2 0.179; #3 1.33
